In PubChem BioAssay AID540275 (National Center for Advancing Translational Sciences (NCATS), 2011):
The campaign covered roughly 320,000 compounds. About 620 (0.19%) were called active. The inconclusive results got no clear call from the source; some entries with a clear call stand among them for comparison. Rule as the data show it: active = activation above about 80%; inconclusive = between about 30% and that limit; inactive = weaker than that.
Also: 0% is about no effect.

Protein sequences, listed by entry. Tags and fused reporters are not part of them.
UniProt Q8NER1, whole entry, looked up: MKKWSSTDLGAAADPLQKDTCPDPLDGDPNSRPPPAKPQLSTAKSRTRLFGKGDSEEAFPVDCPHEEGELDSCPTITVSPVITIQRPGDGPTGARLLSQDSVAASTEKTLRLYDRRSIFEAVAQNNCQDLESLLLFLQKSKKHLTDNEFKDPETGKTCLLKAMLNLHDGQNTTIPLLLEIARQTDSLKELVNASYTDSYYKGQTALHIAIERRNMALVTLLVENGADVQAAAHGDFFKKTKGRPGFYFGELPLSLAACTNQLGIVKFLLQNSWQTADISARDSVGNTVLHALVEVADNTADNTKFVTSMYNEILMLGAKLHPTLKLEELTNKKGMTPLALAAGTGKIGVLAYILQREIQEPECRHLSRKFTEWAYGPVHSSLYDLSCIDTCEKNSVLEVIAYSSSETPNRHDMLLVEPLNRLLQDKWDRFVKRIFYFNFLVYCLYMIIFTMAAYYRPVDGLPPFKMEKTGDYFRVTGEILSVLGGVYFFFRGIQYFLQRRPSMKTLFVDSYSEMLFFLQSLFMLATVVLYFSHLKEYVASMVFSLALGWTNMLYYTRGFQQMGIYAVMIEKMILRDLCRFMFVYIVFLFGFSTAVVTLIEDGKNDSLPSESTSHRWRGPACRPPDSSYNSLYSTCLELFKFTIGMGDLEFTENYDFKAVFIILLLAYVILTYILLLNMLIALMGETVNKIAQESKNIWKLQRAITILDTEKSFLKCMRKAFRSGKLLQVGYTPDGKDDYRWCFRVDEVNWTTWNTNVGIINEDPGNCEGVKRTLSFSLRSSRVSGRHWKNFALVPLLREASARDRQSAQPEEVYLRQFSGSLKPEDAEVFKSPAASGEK

Each compound was assayed against Transient receptor potential cation channel subfamily V member 1 (Homo sapiens) (UniProt Q8NER1) (assay: HTS Assay for Compounds that Act as Agonists of the Vanilloid Receptor 1). Conditions: TRPV1-expressing cells, Fluo-8 calcium influx, agonist mode; at 8.33 µM, hits give high values.
How it was run: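 Fluo-8 calcium influx in TRPV1-expressing cells, kinetic read (ex 480/em 520 nm). Compound added and read 3 min for agonist activity, followed by capsaicin at EC20 final and 2 min further read for enhancement.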
With Cc1ccccc1CN1C(=O)c2ccccc2Sc2ccc(C(=O)NCCCN3CCOCC3)cc21 the activation was inconclusive: 40.5%. For OC(COc1ccc(F)cc1Cl)CN1CCC(Cc2ccccc2)CC1 (centres undefined), the activation was inactive: -5.69%. With COc1ccc(-n2c(-c3ccc(Br)cc3)c[n+]3c2CCCCC3)cc1 the activation was inactive: -2.09%. With Cc1scc(C(=O)N/N=C/c2ccc(OC(C)C)cc2)c1C the activation was inconclusive: 60.9%. In the case of COC(=O)c1[nH]c2cccc(OC)c2c1NC(=O)CN1CCN(c2cccc(OC)c2)C(C)C1 (centres undefined), the activation is reported as inconclusive: 37.5%. O=C(c1ccc(Br)s1)N1CCN(Cc2ccc3c(c2)OCO3)CC1 was tested, and the activation was inconclusive: 53.8%. In the case of CCC(C)NS(=O)(=O)c1ccc(S(=O)(=O)N(CC(=O)Nc2ccccc2)Cc2ccco2)cc1 (centres undefined), the activation is reported as inactive: -0.858%. With COc1ccc(C2Nc3ccccc3C(=O)N2Cc2ccccc2)cc1COc1ccc(Cl)cc1Cl (centres undefined) the activation was inactive: -3.99%. In the case of COc1ccc(N(C)S(=O)(=O)c2ccc(Cl)c(C(=O)NNC(=O)c3ccccc3O)c2)cc1, the activation is reported as inactive: 0.483%. For COC(=O)c1cn(NC(=O)c2ccc([N+](=O)[O-])c(C)c2)c(=O)c2ccccc12, the activation was inconclusive: 48.5%. In the case of CCOC(=O)c1ccc(NC(=O)c2cc3ccccc3o2)cc1, the activation is reported as inconclusive: 73.2%. For O=C(NC1CCCCCCC1)c1ccc(S(=O)(=O)N2CCCC2)cc1, the activation was inconclusive: 44.8%. With CCCN1CCC(=O)N([C@H](CSc2ccc(OC)cc2)Cc2ccccc2)CC1 the activation was inactive: -3.66%. With CN(C)S(=O)(=O)c1ccc(N2CCCC2)c(C(=O)OCC(=O)NC2(C#N)CCCCC2)c1 the activation was inconclusive: 33.7%. With O=C(Cc1ccccc1)Nc1nc(-c2ccc(F)c(F)c2)cs1 the activation was inconclusive: 79.1%. With O=c1[nH]c(N/N=C/c2cc3c(cc2[N+](=O)[O-])OCO3)nc2ccccc12 the activation was inactive: 2.25%. For Cc1ccc(C(C)C)c(OCCNC(=O)c2ccccc2O)c1, the activation was inconclusive: 70.5%. COc1ccc(CNC(=O)c2ccccc2SC)cc1 was tested, and the activation was inactive: 0.132%. In the case of Cc1cc(C(=O)OCC(=O)Nc2ccc(F)c(F)c2)c(C)o1, the activation is reported as inconclusive: 36.3%. In the case of CCOC(=O)c1ccc(NC(=O)N2CCCCC2)cc1, the activation is reported as inconclusive: 38.8%. For CN(CC(=O)Nc1ccc2c(c1)OCO2)S(=O)(=O)c1cccs1, the activation was inconclusive: 31.5%. In the case of Oc1ccc(Br)cc1C1C=C(c2ccc3c(c2)OCO3)NC(c2cccc(F)c2)N1 (centres undefined), the activation is reported as inconclusive: 32.9%. For CC1CCN(S(=O)(=O)c2cccc(S(=O)(=O)N3CCOCC3)c2)CC1, the activation was inactive: 2.77%. In the case of COc1cccc(CNC(=O)CCC2CCCN(C(=O)c3csc(C(C)C)n3)C2)c1 (centres undefined), the activation is reported as inconclusive: 46.4%. For CCOC(=O)N1CCc2c(sc(NC(=O)CN3CCOCC3)c2C(=O)Nc2ccccc2)C1, the activation was inactive: 2.69%. For COc1ccc(NC(=O)CN(C)C(=O)CCSc2ccc(C)cc2)cc1, the activation was inconclusive: 65.5%. O=C(NC1CCCC1)c1cccc(NC(=O)c2ccco2)c1 was tested, and the activation was inactive: -5.77%. In the case of O=C1c2ccccc2C(Nc2ccc(S(=O)(=O)N3CCCCC3)cc2)N1Cc1ccco1 (centres undefined), the activation is reported as inconclusive: 57.4%. CC(Cc1cccs1)NC(=O)c1cccc(Cl)c1 (centres undefined) was tested, and the activation was inconclusive: 42.1%. In the case of CCOc1ccc(CNC(=O)CCS(=O)(=O)Cc2cccc(Cl)c2)cc1OC, the activation is reported as inconclusive: 50.8%. With COc1cc2ccccc2cc1C(=O)NCC(c1cccs1)N(C)C (centres undefined) the activation was inconclusive: 32.4%. S=C(NCc1ccccc1)N/N=C/c1cccs1 was tested, and the activation was inactive: 11.3%. COC(=O)c1c(C(=O)OC)c(-c2ccc(C(C)(C)C)cc2)n2c1CS(=O)C2 (centres undefined) was tested, and the activation was inconclusive: 39.9%. Cc1ccc(-c2nn3c(C)nnc3s2)cc1NCc1c(F)cccc1Cl was tested, and the activation was inconclusive: 40.7%. For Cc1c(C(=O)/C=C/N(C)C)nnn1-c1ccc(F)c(Cl)c1, the activation was inactive: 3.61%. In the case of Cc1nnc(SCC(=O)c2ccc(C(C)C)cc2)s1, the activation is reported as inconclusive: 54.1%. For O=C(Nc1ccc(F)c(Cl)c1)c1cncs1, the activation was inconclusive: 32.3%. For COc1ccc(-c2noc(CCC(=O)NCCCN3CCC(Cc4ccccc4)CC3)n2)cc1, the activation was inactive: 4%. CCOC(=O)C1=CC[C@]2(C)c3c(c4ccccc4n3C)C(=O)C1N2C was tested, and the activation was inactive: -3.46%. For CCOC(=O)N1CCC(N2Cc3cccc(C(=O)Nc4ccc(F)cc4)c3C2=O)CC1, the activation was inactive: -0.851%. With COc1ccc(C(=O)c2c3ccc(C(F)(F)F)cc3[n+]([O-])n2CCCC(N)=O)cc1 the activation was inconclusive: 37%. Cc1nnc2ccc(-c3cccc(NC(=O)c4ccco4)c3)nn12 was tested, and the activation was inactive: 1.3%. Cc1cccc(/C=N/n2c(C)nc3ccccc3c2=O)c1 was tested, and the activation was inconclusive: 76.9%. CCO[C@@H]1OC(C(=O)N2CCCCCCC2)=C[C@H](C2CCCCC2)[C@H]1CCCO was tested, and the activation was inconclusive: 40.8%. In the case of O=C(CCn1nc(-c2ccccc2)c2ccccc2c1=O)Nc1cccnc1, the activation is reported as inconclusive: 32.3%. With N#CN1CCC(NS(=O)(=O)c2ccc(C(F)(F)F)cc2)C1 (centres undefined) the activation was inconclusive: 79.4%. In the case of NC(=O)c1ccsc1NC(=O)COC(=O)Cc1ccsc1, the activation is reported as inactive: 0.57%. For CC(C)Oc1ccccc1C1CC(=O)Nc2cc3c(cc21)OCO3 (centres undefined), the activation was inconclusive: 42.6%. With Oc1c(/C=N/Nc2cccc3cccnc23)ccc2ccccc12 the activation was inactive: 3.93%. In the case of CN1C(C(=O)NCc2ccco2)=CC(c2ccc(F)cc2)=NS1(=O)=O, the activation is reported as inconclusive: 53.8%. O=C(Nc1ccc(S(=O)(=O)N2CCCCC2)cc1)c1cnccn1 was tested, and the activation was inconclusive: 43.8%. With COC(=O)c1ccc(NC(=S)NC2CC3CCC2C3)cc1 (centres undefined) the activation was inconclusive: 77.8%. O=C(c1cc2c(s1)-c1ccccc1S(=O)(=O)C2)N1CCN(Cc2ccccc2)CC1 was tested, and the activation was inactive: 1.12%. For O=C(CCCc1ccccc1)Nc1ccnn1C1CCN(Cc2ccccc2)CC1, the activation was inactive: -0.895%. For O=C(N/N=C/c1cccs1)c1ccc(NC(=O)c2ccccc2Cl)cc1, the activation was inconclusive: 42.6%. In the case of CC(=O)Nc1ccc2nc(NC(=O)c3ccc([N+](=O)[O-])o3)sc2c1, the activation is reported as inactive: -0.854%. COc1ccc(OCC(=O)NCCNC(=O)c2cccnc2)cc1 was tested, and the activation was inactive: -1.54%. In the case of CCN(CC)c1nc(-c2ccccn2)nc(-c2ccccc2)c1C#N, the activation is reported as inconclusive: 35.1%. For O=C(CSc1ccccc1)Nc1cccc(S(=O)(=O)N2CCCCC2)c1, the activation was inactive: 21.4%. With C/C(=N\NC(=O)c1ccc2c(c1)OCO2)c1ccc2c(c1)OCO2 the activation was inconclusive: 56.7%. For O=C(C1=C[C@@H](c2ccccc2)C[C@@H](OCc2ccc(CO)cc2)O1)N1CCN(Cc2ccc3c(c2)OCO3)CC1, the activation was inconclusive: 60.1%. For CCOC(=O)c1cccc(C2=CC(=O)C[C@H](c3ccc(OC)cc3)C2)c1, the activation was inconclusive: 30.6%. Cc1ccc(C(=O)CNc2ccc(F)cc2)cc1 was tested, and the activation was inconclusive: 44.5%. In the case of CCC(=O)Nc1cccc(SC)c1, the activation is reported as inactive: 2.34%. With CC(=O)c1cccc(NC(=O)c2c(C)nn(-c3ccccc3)c2Cl)c1 the activation was inconclusive: 69.2%. For COC(=O)C(Cc1ccccc1)NC(=O)CCCC(=O)NCc1cccc(OC)c1 (centres undefined), the activation was inactive: -4.02%. In the case of O=C(Nc1cccc([N+](=O)[O-])c1)c1ccc2c(c1)OCO2, the activation is reported as inconclusive: 41.5%. O=C(CSc1nc2ccccc2o1)Nc1ccc(Cl)cc1 was tested, and the activation was inconclusive: 31.2%. O=C(COC(=O)c1cc(Cl)ccc1Cl)Nc1ccc2[nH]c(=O)[nH]c2c1 was tested, and the activation was inconclusive: 36.9%. CC1CCN(C(=O)CSc2nnc(Cc3cccn3C)n2CCc2ccccc2)CC1 was tested, and the activation was inconclusive: 50.2%. CCOc1cc(S(=O)(=O)N2CCN(c3ccc(F)cc3)CC2)c(OCC)cc1-n1cnnn1 was tested, and the activation was inactive: 1.98%. In the case of Cc1ccc(Cn2cccc2/C=N/NC(=S)Nc2ccc(C)cc2)cc1, the activation is reported as inactive: 1.22%. With O=C(COc1cccc(C(F)(F)F)c1)Nc1cccnc1 the activation was inconclusive: 35.8%. With O=C(Cc1coc(-c2ccc(F)cc2)n1)NC1CCCCC1 the activation was inconclusive: 34%. Cc1cc(NC(=O)c2c(F)cccc2F)n(-c2nc3ccccc3[nH]2)n1 was tested, and the activation was inconclusive: 47.8%. COc1ccc(CNC(=O)C2CCN(S(=O)(=O)N3CCCC3)CC2)c(OC)c1 was tested, and the activation was inactive: -0.393%. In the case of O=C1NNC(c2ccccc2)=N/C1=C\c1ccccc1, the activation is reported as inconclusive: 46.1%. CCCCCc1cc(O)c2c(C)cc(=O)oc2c1 was tested, and the activation was inconclusive: 50.3%. With COc1ccc(CCC(=O)N2CCCC(Nc3ccc(C)c(C)c3)C2)cc1OC (centres undefined) the activation was inconclusive: 72.6%. For COc1cccc(CNS(=O)(=O)c2cc(-c3cc(C)no3)ccc2C(C)C)c1, the activation was inconclusive: 32.4%. Cc1ccc(-n2nnnc2CCl)cc1 was tested, and the activation was inactive: -5.06%. With CCOc1ccc(S(=O)(=O)N2CCCCC2)cc1NC(=O)CC1OC(=O)c2ccccc21 (centres undefined) the activation was inactive: -1.54%. With CCOC(=O)/C(=C/C=C1\Sc2ccccc2N1CC)C(C)=O the activation was inconclusive: 53%. In the case of CCN(C(=O)CSc1nc(-c2ccccc2)c(-c2ccccc2)[nH]1)C1CCS(=O)(=O)C1 (centres undefined), the activation is reported as inactive: -3.96%. With CCCCCCN1CC(O)=C(c2ccccc2)C1=N the activation was inactive: -1.22%. For C=C(Cl)COc1ccc2c(CCC)cc(=O)oc2c1, the activation was inconclusive: 41.9%. For Cc1nc2ccccc2c(=O)n1/N=C/c1cccs1, the activation was inconclusive: 72%. With CC(NC(=O)c1noc2c1CCCCC2)c1ccccc1 (centres undefined) the activation was inconclusive: 34.9%. In the case of O=C(COC(=O)c1ccccc1Nc1ccccc1)NCc1ccccc1Cl, the activation is reported as inconclusive: 46.8%.
